Results deposited as PubChem BioAssay AID652243 (Drosophila RNAi Screening Center, 2013)

- Assay: 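Knock-downs that decrease or increase androgen receptor reporter signal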 (primary screen)
- Cells: Drosophila S2R+ cells
- Reagents: long dsRNA against Drosophila genes
- Duration: 72 h (48 h, then 24 h hormone)
- Challenge: synthetic androgen R1881 at 10 nM for 24 h
- Read-out: 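Per-well raw luminescence of the androgen-driven firefly reporter and of the Renilla control, two replicates each, without normalisation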
- Reading the numbers: firefly reporter light: higher = more light from androgen-responsive reporter; Renilla control light: higher = more constitutive control signal (cell number, transfection)
- Active means: 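Hit when the log firefly-to-Renilla ratio dropped or increased by a fixed fold versus the mean of GFP or LacZ controls across duplicate plates; lowering cut given as 1.5 and as 3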
- Meaning of the calls: active = hit: reporter lowered or raised; inactive = no hit
The screen tested about 24,000 reagents; this is an unselected part of those with a known target gene and a result. Over the whole deposit, 246 (1%) were called active. 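Plates not normalised; calls are printed but the firefly/Renilla ratio behind them is not deposited; fold cut for lowering reported inconsistently.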 Raw values are not corrected between plates. Reagents against one gene are numbered here. Names joined by + are all predicted targets of the reagent. Not given: the amount of reagent.

Gene | reagent | firefly reporter light, replicate 1 | firefly reporter light, replicate 2 | Renilla control light, replicate 1 | Renilla control light, replicate 2 | Outcome
Ibf1 (Insulator binding factor 1) | 1 | 22550 | 36170 | 5.58e5 | 3.96e5 | inactive
CG34256 | 1 | 8.57e5 | 8.36e5 | 2.41e6 | 2.20e6 | inactive
Gnmt (Glycine N-methyltransferase) | 1 | 1.14e5 | 98738 | 1.60e6 | 1.50e6 | inactive
Drsl5 (Drosomycin-like 5) | 1 | 1.68e5 | 1.99e5 | 2.02e6 | 2.48e6 | inactive
SmD3 (Small ribonucleoprotein particle protein SmD3) | 1 | 4.67e5 | 2.77e5 | 2.02e6 | 1.84e6 | inactive
SmD3 (Small ribonucleoprotein particle protein SmD3) | 2 | 3.65e5 | 4.90e5 | 1.17e6 | 1.17e6 | inactive
CG42686 (retired record) | 1 | 1.59e5 | 2.54e5 | 2.89e6 | 3.44e6 | inactive
CG42686 (retired record) | 2 | 7.43e5 | 7.11e5 | 9.73e5 | 1.65e6 | inactive
CG42686 (retired record) | 3 | 2.55e5 | 2.70e5 | 9.80e5 | 7.95e5 | inactive
CG42686 (retired record) | 4 | 7.00e5 | 5.98e5 | 1.27e6 | 1.27e6 | inactive
esc (extra sexcombs) | 1 | 1.22e6 | 1.41e6 | 2.81e6 | 2.01e6 | inactive
esc (extra sexcombs) | 2 | 5.32e5 | 3.68e5 | 1.45e6 | 1.02e6 | inactive
CG11029 | 1 | 1.21e5 | 1.68e5 | 9.69e5 | 1.36e6 | inactive
CG17187 | 1 | 1.69e5 | 1.74e5 | 3.97e5 | 4.98e5 | inactive
CG17187 | 2 | 4.87e5 | 2.98e5 | 1.31e6 | 1.32e6 | inactive
CG33919 | 1 | 1.20e6 | 1.05e6 | 2.33e6 | 1.50e6 | inactive
CG5577 | 1 | 28001 | 16473 | 3.66e5 | 1.87e5 | inactive
CD98hc (CD98 heavy chain) | 1 | 72334 | 73638 | 2.11e6 | 1.45e6 | inactive
CG31391 | 1 | 1.07e5 | 1.01e5 | 1.43e6 | 1.11e6 | inactive
Ssl2 (Strictosidine synthase-like 2) | 1 | 2.77e5 | 2.42e5 | 2.02e6 | 3.76e6 | inactive
Ssl2 (Strictosidine synthase-like 2) | 2 | 7.02e5 | 1.07e6 | 6.88e5 | 1.07e6 | inactive
dbr (debra) | 1 | 1.40e6 | 1.23e6 | 4.08e6 | 1.76e6 | inactive
Fim (Fimbrin) | 1 | 1.52e5 | 1.37e5 | 9.32e5 | 7.98e5 | inactive
CG42586 + CG31775 | 1 | 26561 | 29711 | 15575 | 12901 | inactive
CG5334 | 1 | 6.56e5 | 4.71e5 | 3.91e6 | 3.77e6 | inactive
CG14567 | 1 | 2.79e5 | 2.17e5 | 2.40e6 | 1.63e6 | inactive
CG2865 | 1 | 1.10e5 | 1.84e5 | 6.93e5 | 6.63e5 | inactive
CG2865 | 2 | 1.96e5 | 2.14e5 | 1.74e6 | 2.09e6 | inactive
CG2865 | 3 | 5.84e5 | 7.65e5 | 8.40e5 | 1.18e6 | inactive
Ctns (Cystinosin) | 1 | 2.01e5 | 2.17e5 | 2.55e6 | 2.51e6 | inactive
alpha-Est2 (alpha-Esterase-2) | 1 | 1.15e5 | 1.55e5 | 2.77e6 | 2.51e6 | inactive
WRNexo (WRN exonuclease) | 1 | 1.33e5 | 1.18e5 | 1.22e6 | 1.11e6 | inactive
CG5937 | 1 | 1.52e5 | 2.26e5 | 1.33e6 | 1.59e6 | inactive
CG5937 | 2 | 2.85e5 | 2.49e5 | 5.92e5 | 6.51e5 | inactive
CG42375 + CG9288 | 1 | 58029 | 66155 | 1.30e5 | 1.43e5 | inactive
CG31013 | 1 | 2.04e5 | 2.59e5 | 2.03e6 | 2.77e6 | inactive
5-HT1A (5-hydroxytryptamine (serotonin) receptor 1A) | 1 | 68761 | 48711 | 9.06e5 | 1.04e6 | inactive
5-HT1A (5-hydroxytryptamine (serotonin) receptor 1A) | 2 | 2.95e5 | 3.62e5 | 6.84e5 | 7.05e5 | inactive
Vps8 (Vacuolar protein sorting 8) | 1 | 84514 | 1.46e5 | 1.38e6 | 2.12e6 | inactive
CG14598 | 1 | 1.02e5 | 1.04e5 | 2.69e6 | 1.96e6 | inactive
CG14598 | 2 | 1.11e6 | 1.60e6 | 1.60e6 | 1.24e6 | inactive
betaTub60D (beta-Tubulin at 60D) | 1 | 3.19e5 | 3.05e5 | 2.15e6 | 2.14e6 | inactive
betaTub60D (beta-Tubulin at 60D) | 2 | 5.25e5 | 2.75e5 | 1.39e6 | 1.14e6 | inactive
betaTub60D (beta-Tubulin at 60D) | 3 | 7.14e5 | 6.28e5 | 5.07e5 | 6.19e5 | inactive
betaTub60D (beta-Tubulin at 60D) | 4 | 3.80e5 | 3.38e5 | 1.02e6 | 9.09e5 | inactive
Snx21 (Sorting nexin 21) | 1 | 1.11e6 | 9.62e5 | 3.45e6 | 2.39e6 | inactive
Snx21 (Sorting nexin 21) | 2 | 3.20e5 | 6.20e5 | 5.71e5 | 1.13e6 | inactive
NHP2 | 1 | 1.07e5 | 81132 | 9.75e5 | 8.48e5 | inactive
NHP2 | 2 | 3.45e5 | 3.26e5 | 3.21e5 | 3.63e5 | inactive
pds5 | 1 | 8.38e5 | 8.33e5 | 1.46e6 | 1.30e6 | inactive
bc10 | 1 | 1.77e5 | 2.34e5 | 1.79e6 | 2.09e6 | inactive
CG31091 | 1 | 1.52e5 | 1.30e5 | 2.16e6 | 1.98e6 | inactive
DNAlig3 (DNA ligase 3) | 1 | 1.99e5 | 2.18e5 | 2.67e6 | 2.48e6 | inactive
DNAlig3 (DNA ligase 3) | 2 | 5.69e5 | 8.08e5 | 1.01e6 | 1.01e6 | inactive
jdp | 1 | 1.37e5 | 90352 | 7.80e5 | 4.65e5 | inactive
jdp | 2 | 6.05e5 | 7.62e5 | 1.58e6 | 1.58e6 | inactive
CG15283 | 1 | 1.59e5 | 1.97e5 | 1.84e6 | 2.34e6 | inactive
CG4025 | 1 | 2.54e5 | 3.64e5 | 3.25e6 | 3.03e6 | inactive
GLS (Glutaminase) | 1 | 8.15e5 | 1.19e6 | 1.55e6 | 1.43e6 | inactive
GLS (Glutaminase) | 2 | 2.84e5 | 2.46e5 | 4.92e5 | 5.10e5 | inactive
CG9018 | 1 | 51088 | 38516 | 5.97e5 | 7.87e5 | inactive
CG11475 | 1 | 1.32e6 | 3.22e5 | 2.26e6 | 6.73e5 | inactive
CG11475 | 2 | 6.34e5 | 7.63e5 | 9.43e5 | 9.05e5 | inactive
CG32236 | 1 | 1.80e5 | 2.26e5 | 3.14e5 | 3.71e5 | inactive
Crk (Crk oncogene) | 1 | 1.17e5 | 1.40e5 | 1.47e6 | 1.07e6 | inactive
CG17147 | 1 | 1.78e5 | 1.74e5 | 2.75e6 | 2.33e6 | inactive
CG17147 | 2 | 2.24e5 | 1.72e5 | 1.14e6 | 1.24e6 | inactive
CG8248 | 1 | 1.08e6 | 1.09e6 | 1.33e6 | 1.48e6 | inactive
Cog1 (Component of oligomeric golgi complex 1) | 1 | 47040 | 53453 | 4.71e5 | 3.38e5 | inactive
Usp30 (Ubiquitin specific protease 30) | 1 | 2.84e5 | 2.81e5 | 2.14e6 | 2.75e6 | inactive
Usp30 (Ubiquitin specific protease 30) | 2 | 5.24e5 | 5.66e5 | 8.48e5 | 8.48e5 | inactive
Obp57e (Odorant-binding protein 57e) | 1 | 2.41e5 | 2.62e5 | 3.68e5 | 2.70e5 | inactive
CG16710 | 1 | 2.23e5 | 2.30e5 | 3.01e6 | 1.85e6 | inactive
CG33223 + CG32713 | 1 | 4.08e5 | 6.64e5 | 1.10e6 | 1.52e6 | inactive

Entries above whose gene name starts with B or b (5):
Gene | reagent | firefly reporter light, replicate 1 | firefly reporter light, replicate 2 | Renilla control light, replicate 1 | Renilla control light, replicate 2 | Outcome
betaTub60D (beta-Tubulin at 60D) | 1 | 3.19e5 | 3.05e5 | 2.15e6 | 2.14e6 | inactive
betaTub60D (beta-Tubulin at 60D) | 2 | 5.25e5 | 2.75e5 | 1.39e6 | 1.14e6 | inactive
betaTub60D (beta-Tubulin at 60D) | 3 | 7.14e5 | 6.28e5 | 5.07e5 | 6.19e5 | inactive
betaTub60D (beta-Tubulin at 60D) | 4 | 3.80e5 | 3.38e5 | 1.02e6 | 9.09e5 | inactive
bc10 | 1 | 1.77e5 | 2.34e5 | 1.79e6 | 2.09e6 | inactive
